This passage reports binding results from publication PMC9925322.

The target in the assay is T1, Flag-PTP4A1 (protein tyrosine phosphatase type IVA 1) (UniProt Q93096).
T1 sequence: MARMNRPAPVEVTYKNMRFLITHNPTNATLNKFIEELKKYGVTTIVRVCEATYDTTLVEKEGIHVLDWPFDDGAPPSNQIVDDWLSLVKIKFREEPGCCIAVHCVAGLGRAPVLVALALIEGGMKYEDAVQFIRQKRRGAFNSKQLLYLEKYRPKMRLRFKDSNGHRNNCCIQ
Kind of assay: co-IP; HEK293T cells co-transfected; lysates immunoprecipitated with anti-Flag antibody overnight at 4 °C, protein G-Sepharose beads 2 h at 4 °C; Western blot. On the technique in general: In western blotting, separated proteins are transferred to a membrane and probed.

These are yes or no findings as the source states them, for the method shown. Binding seen in cells or lysates may run through a third protein. Some entries that bind do so weakly or less than the wild type. Tags and fused reporters may be left off the sequences shown.

B1: peroxisome proliferator-activated receptor α (PPARα) (protein, UniProt Q07869 1-468)
chain: MVDTESPLCPLSPLEAGDLESPLSEEFLQEMGNIQEISQSIGEDSSGSFGFTEYQYLGSCPGSDGSVITDTLSPASSPSSVTYPVVPGSVDESPSGALNIECRICGDKASGYHYGVHACEGCKGFFRRTIRLKLVYDKCDRSCKIQKKNRNKCQYCRFHKCLSVGMSHNAIRFGRMPRSEKAKLKAEILTCEHDIEDSETADLKSLAKRIYEAYLKNFNMNKVKARVILSGKASNNPPFVIHDMETLCMAEKTLVAKLVANGIQNKEAEVRIFHCCQCTSVETVTELTEFAKAIPGFANLDLNDQVTLLKYGVYEAIFAMLSSVMNKDGMLVAYGNGFITREFLKSLRKPFCDIMEPKFDFAMKFNALELDDSDISLFVAAIICCGDRPGLLNVGHIEKMQEGIVHVLRLHLQSNHPDDIFLFPKLLQKMADLRQLVTEHAQLVQIIKKTESDAALHPLLQEIYRDMY
As for B1, the binding entry is reported as “no binding”.

B2: HA-CREBH(F), the inactive form of cyclic adenosine monophosphate-responsive element-binding protein H (protein, UniProt Q68CJ9 1-461)
chain: MNTDLAAGKMASAACSMDPIDSFELLDLLFDRQDGILRHVELGEGWGHVKDQQVLPNPDSDDFLSSILGSGDSLPSSPLWSPEGSDSGISEDLPSDPQDTPPRSGPATSPAGCHPAQPGKGPCLSYHPGNSCSTTTPGPVIQVPEASVTIDLEMWSPGGRICAEKPADPVDLSPRCNLTVKDLLLSGSSGDLQQHHLGASYLLRPGAGHCQELVLTEDEKKLLAKEGITLPTQLPLTKYEERVLKKIRRKIRNKQSAQESRKKKKEYIDGLETRMSACTAQNQELQRKVLHLEKQNLSLLEQLKKLQAIVVQSTSKSAQTGTCVAVLLLSFALIILPSISPFGPNKTESPGDFAPVRVFSRTLHNDAASRVAADAVPGSEAPGPRPEADTTREESPGSPGADWGFQDTANLTNSTEELDNATLVLRNATEGLGQVALLDWVAPGPSTGSGRAGLEAAGDEL
With B2, the binding result was “binds”.
